Experimental data reported in patent publication US11827622B2, “Crystalline forms of imidacloprid and methods of use thereof” (New York University, priority 2020, dated 2023).

Experiments:
Format in all cases: in vivo
Settings in all cases: logistic regression of knockdown-time curve
[1] = tested on: Drosophila melanogaster; experiment: Lethality (knockdown time) on contact with IMI polymorph microcrystals in petri dish, fruit flies
Procedure: (§1) Lethality measurements for IMI polymorphs. Microcrystals of IMI Forms I, IV, VI, and IX were prepared by grinding respective single crystals using a mortar and pestle. Their compositions were then analyzed by powder X-ray diffraction (PXRD). Lethality measurements were performed in triplicate for each solid-state form, each accompanied by three controls (no insecticide). 2.0 mg of microcrystals was added to a 35 mm diameter polystyrene petri dish, which was subsequently shaken to disperse the microcrystals throughout the petri dish. Microcrystals was added to a polystyrene petri dish (2.000 mg microcrystals per 35 mm diameter dish for fruit flies; 0.100 mg microcrystals per 100 mm diameter dish for mosquitoes), which was subsequently shaken to disperse the microcrystals throughout the petri dish. Adult mosquitoes (Ae. aegypti, A. quadrimaculatus or C. quinquefasciatus) or fruit flies (D. melanogaster) were sedated with carbon dioxide and 30 female mosquitoes or 20 flies were transferred to each petri dish. The top of the dish was then placed over the bottom and the motion of the insects was recorded with a video camera (Sony HDR-CX455). The knockdown time was measured for each individual insect, with knockdown associated with an insect laying on the bottom surface of the petri dish in a supine position without moving from its original position after 10 seconds.
(§2) Statistical analyses. Logistic regression of knockdown-time curves was preformed to obtain the median knockdown time (KT50) of the test flies and mosquitoes, the 95% confidence intervals (CI), slopes, and standard errors (SE) using Qcal software.
IMI Forms IX, VI, IV were selected for lethality comparison with the commercial Form I, collectively representing a quartet spanning a wide range of free energies. […] A video camera was used to record the knockdown times—a proxy for lethality—for each insect. KT50 values, the times required for 50% of the insects to become immobile and supine, were calculated by logistic regression of knockdown-time curves (FIGS. 34A-34P). Shorter KT50 values correspond to greater lethality. Accordingly, Forms IX, VI and IV were 5.7, 2.5 and 1.8 times faster-acting than Form I.

[2] = tested on: Culex quinquefasciatus; experiment: Lethality (knockdown time) on contact with IMI polymorph microcrystals in petri dish, Culex mosquitoes
Procedure: as §1, §2

[3] = tested on: Anopheles quadrimaculatus; experiment: Lethality (knockdown time) on contact with IMI polymorph microcrystals in petri dish, Anopheles mosquitoes
Procedure: as §1, §2

O=[N+]([O-])N=C1NCCN1Cc1ccc(Cl)nc1 [Form I, 1-[(6-chloro-3-pyridinyl)-methyl]-N-nitro-2-imidazolidinimine, reference compound]
Slope ± SE [1]: 2.21 ± 0.13 | Intercept ± SE [2]: −47.20 ± 2.18 | Slope ± SE [2]: 7.43 ± 0.34 | Slope ± SE [3]: 5.12 ± 0.22

O=[N+]([O-])N=C1NCCN1Cc1ccc(Cl)nc1 [Form IV, 1-[(6-chloro-3-pyridinyl)-methyl]-N-nitro-2-imidazolidinimine]
Slope ± SE [1]: 1.37 ± 0.06 | Intercept ± SE [2]: −67.03 ± 2.37 | Slope ± SE [2]: 11.68 ± 0.41 | Slope ± SE [3]: 4.30 ± 0.15

O=[N+]([O-])N=C1NCCN1Cc1ccc(Cl)nc1 [Form IX, 1-[(6-chloro-3-pyridinyl)-methyl]-N-nitro-2-imidazolidinimine]
Slope ± SE [1]: 1.42 ± 0.05 | Intercept ± SE [2]: −21.09 ± 0.82 | Slope ± SE [2]: 4.70 ± 0.18 | Slope ± SE [3]: 3.68 ± 1.34

O=[N+]([O-])N=C1NCCN1Cc1ccc(Cl)nc1 [Form VI, 1-[(6-chloro-3-pyridinyl)-methyl]-N-nitro-2-imidazolidinimine]
Slope ± SE [1]: 1.30 ± 0.05 | Intercept ± SE [2]: −25.32 ± 0.95 | Slope ± SE [2]: 4.82 ± 0.18 | Slope ± SE [3]: 5.81 ± 0.23
